Results reported in publication PMC3094704, “S-Petasin, the Main Sesquiterpene of Petasites formosanus, Inhibits Phosphodiesterase Activity and Suppresses Ovalbumin-Induced Airway Hyperresponsiveness” (Evidence-based Complementary and Alternative Medicine : eCAM, 2011).

Columns and labels:
PDE4 = conditions: cited from earlier work
[1] = test system: high-affinity rolipram binding sites (HARBSs) of guinea pig brain cell membranes; assay: Displacement of [3H]-rolipram (PDE4H determination); conditions: PDE4H = EC50 of [3H]-rolipram displacement; PDE4L = IC50 on PDE4
Protocol: When the above-described guinea pigs were sacrificed, the whole brains were removed and homogenized with a glass/Teflon homogenizer (Glas-Col, Terre Haute, IN, USA) in 10 volumes of cold medium (pH 6.5) containing 20 mM Bis-Tris, 2 mM benzamidine, 2 mM EDTA, 50 mM sodium chloride, 0.1 mM PMSF and 1 mM dithiothreitol. At 4°C, the homogenate was centrifuged at 170 g for 5 min to remove connective tissues and blood vessels. The suspended homogenate was then re-centrifuged at 40 000 g for 30 min to separate the cytosolic and particulate portions. The particulate portion was re-suspended in a suspension at a concentration of 400 mg/mL (wet weight/volume), after washing three times with homogenizing buffer. The particulate portion mainly consisted of cell membranes. The binding ability of S-petasin (3–300 μM) or Ro 20-1724 (1–10,000 nM), a reference drug, to high-affinity rolipram binding sites (HARBSs) of the membranes was determined by replacing 2 nM [^3H]-rolipram in a reaction buffer at 30°C for 1 h, according to the method described by previous investigators and modified by us. Briefly, the reaction buffer consisted of 50 mM Tris-HCl and 5 mM MgCl2 (pH 7.5). The total volume of the reaction mixture was 25 μL, consisting of 10 μL of particulate suspension, 10 μL of [^3H]-rolipram and 5 μL of S-petasin or Ro 20-1724. […]

SMILES	PDE4H/PDE4L ratio (PDE4)	PDE4H/PDE4L value [1]	other results
O=C(Nc1c(Cl)cncc1Cl)c1ccc(OC(F)F)c(OCC2CC2)c1 [roflumilast]	3	–	–
CCCCOc1cc(CC2CNC(=O)N2)ccc1OC (centres unmarked) [Ro 20-1724, 4-(3-butoxy-4-methoxybenzyl)-2-imidazolidinone, reference compound]	–	0.014	–
O=C(Nc1c(Cl)cncc1Cl)C(=O)c1cn(Cc2ccc(F)cc2)c2ccc(O)cc12 [AWD 12-281, N-(3,5-dichloro-pyrid-4-yl)-[1-(4-fluorobenzyl)-5-hydroxy-indole-3-yl]-glyoxylic acid amide]	–	–	PDE4H/PDE4L ratio (PDE4; calculated): approximately 11
COc1ccc([C@]2(C#N)CC[C@@H](C(=O)O)CC2)cc1OC1CCCC1 [cilomilast]	1	–	–
C=C(C)[C@@H]1C[C@@]2(C)C(=CC1=O)CC[C@@H](OC(=O)/C=C\SC)[C@@H]2C [S-Petasin]	–	> 17	–

Where two headings read alike, the source gives them in different places.
